Results reported in PubChem BioAssay (NCATS).
The shares of active, inactive and inconclusive entries below differ from those in the screen. Where the call is inconclusive, the potency comes from a doubtful curve fit. Activity calls are given as the source filed them. The call rests on the fitted dose curve; in most records, active means well fitted cell-killing curve with a large enough effect; inconclusive means small, poorly fitted or top-dose-only effect, or effect the other way; inactive means no such curve, though single readings can be large or run the other way.

Experiment: qHTS of pediatric cancer cell lines to identify multiple opportunities for drug repurposing: Confirmatory screen for Saos-2 cells (AID 1347127); further: nearly all actives have a fitted effect of over 60% in size
Conditions: Saos-2 osteosarcoma cell viability; series mostly up to 45.9 µM
Outline: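 Viability after 48 h compound treatment at 37C, 500-1,000 cells/well, read as ATP luminescence with CellTiter-Glo. Primary screens used 11-point (MIPE, 0.78 nM-46 µM) or 8-point (NPC, 0.59 nM-46 µM) final concentrations; follow-up screens used 11-point dilutions.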
Potency means the concentration at half of the fitted maximal effect.

| SMILES | Potency |
| --- | --- |
| COc1cccc2c1C(=O)c1c(O)c3c(c(O)c1C2=O)C[C@@](O)(C(=O)CO)C[C@H]3O[C@H]1C[C@H](N)[C@H](O)[C@H](C)O1 | inconclusive: 0.414 µM [cytotoxic, full curve] |
| Nc1nc2c(c(=O)[nH]1)N(C=O)[C@H](CNc1ccc(C(=O)N[C@@H](CCC(=O)O)C(=O)O)cc1)CN2 | inactive |
| CC(=O)OCC(=O)[C@@]1(O)[C@H](C)C[C@H]2[C@@H]3CCC4=CC(=O)C=C[C@]4(C)[C@@]3(F)[C@@H](O)C[C@@]21C | inconclusive: 32.9 µM [cytotoxic, single point] |
| COc1cc2ncnc(Nc3cccc(Br)c3)c2cc1OC | inactive |
| O=C(O)c1ccc(Nc2ncc3c(n2)-c2ccc(Cl)cc2C(c2c(F)cccc2F)=NC3)cc1 | inconclusive: 18.5 µM [cytotoxic, partial curve, poor fit] |
| COC(=O)c1ccc2c(C(=Nc3ccc(N(C)C(=O)CN4CCN(C)CC4)cc3)c3ccccc3)c(O)[nH]c2c1 | inconclusive: 20.8 µM [cytotoxic, single point] |
| CCC(C=C[C@@H]1OC(=O)C=C[C@H]1C)=C[C@H](C)CC=CC(C)=C[C@@H](C)C(=O)[C@@H](C)[C@H](O)[C@@H](C)CC(C)=CC(=O)O | inconclusive: 0.0091 µM [cytotoxic, full curve] |
| Oc1c(Cl)cc(Cl)c2cccnc12 | inconclusive: 9.27 µM [cytotoxic, full curve] |
| Nc1[nH]nc2nnc(-c3c(-c4ccccc4)nn4ccccc34)cc12 | inconclusive: 32.9 µM [cytotoxic, single point] |
| C#CCC(Cc1cnc2nc(N)nc(N)c2n1)c1ccc(C(=O)N[C@@H](CCC(=O)O)C(=O)O)cc1 (stereo not given in full) | inconclusive: 0.233 µM [cytotoxic, full curve] |
| Cc1ccc(C(N)=O)cc1Nc1nccc(-c2cn(C(C)C)c3cnccc23)n1 | active: 21.4 µM |
| O=[N+]([O-])c1ccc(O)c2ncccc12 | inconclusive: 3.69 µM [cytotoxic, full curve, poor fit] |
| Nc1c2ccccc2nc2ccccc12 | inconclusive: 2.93 µM [cytotoxic, full curve] |
| CO[C@@]12[C@H](COC(N)=O)C3=C(C(=O)C(C)=C(N)C3=O)N1C[C@@H]1N[C@@H]12 | inconclusive: 0.104 µM [rising, full curve] |
| NC(=O)NO | inactive |
